Data reported in the supplement of paper PMC12067093, “Discovery and optimisation of a covalent ligand for TRIM25 and its application to targeted protein ubiquitination” (Chemical Science, 2025).
Some of the results follow.

Compound: Cc1cc(ccc1-c1ccccc1)C(=O)N1CCCN(CC1)C(=O)CCl [compound 10]
Experiment: probe-labelled cysteine peptide fold change vs DMSO (competition) (log2 fold change); higher = less target engagement (more negative = stronger competition)
Details: THP-1, incubation time: 4 h
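Note: competitive profiling in live THP-1 cells: cysteine peptides tagged with an iodoacetamide desthiobiotin (IA-DTB) probe, intensity after compound treatment relative to DMSO-treated cells.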

Row | Target | probe-labelled cysteine peptide fold change (10 µM) | probe-labelled cysteine peptide fold change (50 µM)
1 | PTPRJ_Q12913_1149_CEEYWPSK (UniProt Q12913) | -0.108 | 0.15
2 | PTDSS1_P48651_153_EADVMEYAVNCHVITWER (UniProt P48651) | 0.383 | 0.359
3 | PTPRC_P08575_853_VNAFSNFFSGPIVVHCSAGVGR (UniProt P08575) | 0.0738 | 0.109
4 | PSMG1_O95456_235_IPAILYLCYTDVMK (UniProt O95456) | 0.174 | 0.692
5 | PSME4_Q14997_637_CCPEESLK (UniProt Q14997) | -0.0784 | -0.446
6 | PSMC3_P17980_387_CTDDFNGAQCK (UniProt P17980) | 0.00316 | -0.00903
7 | PSMC2_P35998_389_SVCTEAGMFAIR (UniProt P35998) | -0.00623 | 0.116
8 | PSMD13_Q9UNM6_276_IQLLCLMEMTFTRPANHR (UniProt Q9UNM6) | -0.0798 | 0.233
9 | PSMC3IP_Q9P2W1_107_VQSLQQSCR (UniProt Q9P2W1) | 0.238 | 0.229
10 | PTER_Q96BW5_196_VLQATAHAQAQLGCPVIIHPGR (UniProt Q96BW5) | 0.2 | 0.329
11 | PSMD12_O00232_108+109_MVQQCCTYVEEITDLPIK (UniProt O00232) | -0.122 | 0.031
12 | PSMC3_P17980_396_CTDDFNGAQCK (UniProt P17980) | 0.0919 | 0.0476
13 | PTPRG_P23470_858_CTADMNITAEHSNHPENK (UniProt P23470) | -0.316 | -0.206
14 | PSMA7_O14818_70_KICALDDNVCMAFAGLTADAR (UniProt O14818) | 0.492 | -0.299
15 | PTPN1_P18031_226_SGTFCLADTCLLLMDK (UniProt P18031) | 0.0513 | -0.172
16 | PSMC6_P62333_193_AVASQLDCNFLK (UniProt P62333) | -0.219 | -0.243
17 | PTPN1_P18031_226_SGTFCLADTCLLLMDKR (UniProt P18031) | -0.0686 | -0.452
18 | PTK2B_Q14289_744_LQFQVPEGLCASSPTLTSPMEYPSPVNSLHTPPLHR (UniProt Q14289) | -0.0815 | -0.366
19 | PSMB1_P20618_82_TVIGCSGFHGDCLTLTK (UniProt P20618) | 0.118 | 0.113
20 | PSMD3_O43242_483_ISFCLDIHNMSVK (UniProt O43242) | -0.124 | -0.0391
21 | PSMD1_Q99460_898_VLTMPETCR (UniProt Q99460) | -0.0254 | 0.0271

Full records, quoted from the list.
PTPN1_P18031_226_SGTFCLADTCLLLMDK (UniProt P18031) is listed with probe-labelled cysteine peptide fold change (10 µM) = 0.0513; probe-labelled cysteine peptide fold change (50 µM) = -0.172
PSMC3_P17980_387_CTDDFNGAQCK (UniProt P17980) is listed with probe-labelled cysteine peptide fold change (10 µM) = 0.00316; probe-labelled cysteine peptide fold change (50 µM) = -0.00903
PTPRJ_Q12913_1149_CEEYWPSK (UniProt Q12913) is listed with probe-labelled cysteine peptide fold change (10 µM) = -0.108; probe-labelled cysteine peptide fold change (50 µM) = 0.15

(continued)

Row | Target | probe-labelled cysteine peptide fold change (10 µM) | probe-labelled cysteine peptide fold change (50 µM)
22 | PTK2B_Q14289_395_RSHLSESCSIESDIYAEIPDETLR (UniProt Q14289) | 0.161 | -0.122
23 | PTRH2_Q9Y3E5_111_QWEYCGQPK (UniProt Q9Y3E5) | 0.0013 | 0.034
24 | PTPRF_P10586_207_YECVATNSAGTR (UniProt P10586) | -0.101 | -0.45
25 | PTCD2_Q8WV60_67_VAVACNLSGTK (UniProt Q8WV60) | -0.105 | -0.0657
26 | PTPN11_Q06124_318_CNNSKPK (UniProt Q06124) | -0.31 | -1.11
27 | PSME3_P61289_92_LDECEEAFQGTK (UniProt P61289) | -0.166 | -0.324
28 | PTCD1_O75127_565_GLVPNLQTFCNLAIGCHRPK (UniProt O75127) | -0.0428 | -0.142
29 | PTPRC_P08575_610_SCNLDEQQELVERDDEK (UniProt P08575) | -0.427 | -1.12
30 | PTPN1_P18031_32_SGSWAAIYQDIRHEASDFPCR (UniProt P18031) | -0.0724 | -0.0258
31 | PTPMT1_Q8WUK0_81_FLCNSSQEWK (UniProt Q8WUK0) | 0.0793 | 0.113
32 | PUF60_Q9UHX1_487_NMVDPKDIDDDLEGEVTEECGK (UniProt Q9UHX1) | -0.163 | -0.556
33 | PSMC4_P43686_210_GVLMYGPPGCGK (UniProt P43686) | 0.0201 | -0.0462
34 | PSMD2_Q13200_616_VQQLLHICSEHFDSK (UniProt Q13200) | 0.306 | 0.321
35 | PSMC5_P62195_209_AVAHHTDCTFIR (UniProt P62195) | 0.191 | -0.0939
36 | PTER_Q96BW5_164_CGIIGEIGCSWPLTESERK (UniProt Q96BW5) | 0.193 | -0.372
37 | PSMA7_O14818_63+70_ICALDDNVCMAFAGLTADAR (UniProt O14818) | 0.144 | -0.0633
38 | PSMA6_P60900_47_GKDCAVIVTQK (UniProt P60900) | -0.0263 | -0.757
39 | PSTPIP1_O43586_148_CRDADDAEQAFER (UniProt O43586) | 0.288 | 0.343
40 | PTPN12_Q05209_242_TGAICAIDYTWNLLK (UniProt Q05209) | 0.193 | -0.0209
41 | PSPH_P78330_38_ICGVEDAVSEMTR (UniProt P78330) | 0.25 | 0.0933
42 | PTBP3_O95758_500_NLFIEAGCSVK (UniProt O95758) | 0.0792 | 0.0833
